# Test results: PubChem BioAssay AID1487 (National Center for Advancing Translational Sciences (NCATS), 2009)
# Some of the results follow. Further columns of the screen follow, without active or inactive calls. The list favours compounds with an active or inconclusive main result. The note in brackets gives the kind of curve behind each potency; many fits are weak.
# Experiment: qHTS Assay for Modulators of Lamin A Splicing
# Details: HeLa LMNA splicing GFP/RFP minigene ratio, 48 h
# In short: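 S3 HeLa stable clones carrying a lamin A-EGFP splicing minigene plus DsRed2 were seeded at 600 cells/well in Opti-MEM with 2% FBS, pin-dosed and incubated 48 h at 37°C. Acumen cytometry (488 nm) gave the GFP/RFP total-intensity ratio.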
# [1] = measured here: RFP viability control channel
# [2] = measured here: GFP splicing reporter channel
structure (smiles),measurement,setting,value
Cc1ccc(C(=O)NC(=S)NNC(=O)c2ccccc2[N+](=O)[O-])cc1,AC50,[1],"12.6 µM [rising, partial curve]"
Cc1cc(C)cc(-n2c(C)cc(/C=N/NC(=O)CSc3ncccn3)c2C)c1,AC50,[2],"25.1 µM [falling, single point]"
same,AC50,[1],"12.6 µM [falling, single point]"
COc1ccc([N+](=O)[O-])cc1COc1cc(C)cc2oc(=O)cc(-c3ccccc3)c12,AC50,[1],"0.355 µM [falling, partial curve]"
CCN(CC)CCCNC(=O)C1CCN(S(=O)(=O)CC)CC1,AC50,[1],"0.0501 µM [rising, full curve, poor fit]"
COc1cc(CNCc2cccnc2)ccc1OCc1ccccc1,AC50,[1],"0.0708 µM [falling, full curve, poor fit]"
CC(=O)c1ccc(NC(=O)c2c3c(nc4ccccc24)C(=O)N(C2CCCCC2)C3)cc1,AC50,[1],"0.0126 µM [falling, full curve, poor fit]"
CCOc1ccc2nc(NC(=O)CSc3nnnn3C3CCCCC3)sc2c1,AC50,[1],"14.1 µM [rising, partial curve]"
O=C(OC1CCCCC1)c1ccc(NC(=O)c2ccco2)cc1,AC50,[2],"35.5 µM [rising, single point]"
same,AC50,[1],"35.5 µM [rising, single point]"
COc1ccc(C2C(C(=O)NCCN3CCOCC3)c3ccccc3C(=O)N2C)cc1OC (stereo not given),AC50,[2],"0.708 µM [falling, full curve]"
same,AC50,[1],"0.891 µM [falling, full curve]"
Cc1cccc(Cn2cc(C(=O)Nc3ccc(F)c(C(F)(F)F)c3)ccc2=O)c1,AC50,[2],"15.8 µM [falling, single point]"
same,AC50,[1],"15.8 µM [falling, single point]"
CCOC(=O)C1(CCSC)NC(c2ccco2)C2C(=O)N(C)C(=O)C21 (stereo not given),AC50,[2],"7.08 µM [falling, partial curve, poor fit]"
COc1ccc2c(-c3ccccc3)cc(SCC(=O)N(C)C)nc2c1,AC50,[2],"11.2 µM [falling, single point]"
same,AC50,[1],"1.12 µM [falling, partial curve, poor fit]"
Cn1c(CNC(=O)c2ccccc2F)nnc1SCCOc1ccccc1,AC50,[2],"35.5 µM [falling, single point]"
O=C(/C=C/c1ccc(S(=O)(=O)N2CCOCC2)cc1)NC(=S)Nc1ccc(Cl)cc1Cl,AC50,[2],"31.6 µM [falling, single point]"
same,AC50,[1],"35.5 µM [falling, single point]"
c1cncc(-c2nn3c(Cn4nnc5ccccc54)nnc3s2)c1,AC50,[2],"6.31 µM [rising, partial curve, poor fit]"
same,AC50,[1],"10 µM [rising, single point]"
CCCCNC(=O)COC(=O)CCC(=O)c1ccc(Cl)cc1,AC50,[2],"1.78 µM [falling, partial curve]"
same,AC50,[1],"3.55 µM [falling, single point]"
CCc1c(C)nc2cc(-c3cc(OC)cc(OC)c3)nn2c1N1CCCC1,AC50,[1],"15.8 µM [rising, single point]"
O=C(CSc1nccn1-c1ccc(Cl)cc1)Nc1ccc2c(c1)OCO2,AC50,[1],"20 µM [rising, single point]"
CC(=O)OCCCCCCCCCCC[N+]1(C)CCCCC1,AC50,[2],"0.891 µM [falling, full curve]"
same,AC50,[1],"4.47 µM [falling, partial curve]"
CC(C)NCC(O)Cn1c2c(c3ccccc31)CCc1c-2cnn1-c1ccccc1 (stereo not given),AC50,[2],"2.51 µM [rising, full curve, poor fit]"
same,AC50,[1],"11.2 µM [rising, partial curve]"
Cc1ccc(NS(=O)(=O)c2cc(Br)cc3c2N(C(=O)C2CC2)CC3)cc1C,AC50,[2],"1.58 µM [rising, partial curve, poor fit]"
same,AC50,[1],"2.24 µM [rising, full curve, poor fit]"
O=C(CSc1ncn[nH]1)Nc1nc(-c2ccccc2)cs1,AC50,[1],"22.4 µM [rising, single point]"
CC(=O)Oc1ccc2c(c1OC(C)=O)OCC1(O)Cc3c(cc(OC(C)=O)c(OC(C)=O)c3OC(C)=O)C21 (stereo not given),AC50,[2],"35.5 µM [falling, single point]"
same,AC50,[1],"35.5 µM [falling, single point]"
COc1ccc(C)cc1NC(=O)c1cnc2sccn2c1=O,AC50,[1],"0.126 µM [falling, full curve, poor fit]"
O=C1OCCN1C(=O)[C@H]1[C@H](c2ccc(F)cc2)C(c2ccc(F)cc2)=NN1c1ccc(Br)cc1,AC50,[2],"35.5 µM [falling, partial curve, poor fit]"
same,AC50,[1],"35.5 µM [falling, partial curve]"
O=C(c1ccc(Cn2cc(Br)cn2)cc1)N1CCN(c2ccccc2)CC1,AC50,[1],"28.2 µM [rising, single point]"
CCOc1cc(/C=N/N=C2/NC(=O)C(CC(=O)O)S2)ccc1OCc1ccc(Cl)cc1Cl (stereo not given),AC50,[2],"2 µM [falling, partial curve]"
CC1CCN(c2nncc3ccccc23)CC1,AC50,[1],"5.62 µM [rising, single point]"
COc1ccccc1CC(=O)Nc1cc(Cl)ccc1O,AC50,[1],"35.5 µM [rising, single point]"
NC(=O)N/N=C/c1cn(-c2ccccc2)nc1-c1ccccc1,AC50,[2],"3.98 µM [falling, single point]"
same,AC50,[1],"3.98 µM [falling, single point]"
CCn1c(=O)n(CC)c2cc(N3CCCCC3)c(NC(=O)Nc3ccccc3Cl)cc21,AC50,[1],"35.5 µM [falling, single point]"
COC(=O)Cn1c(=NC(=O)c2ccc(OC)cc2)sc2cc(OC)ccc21,AC50,[1],"35.5 µM [rising, single point]"
C=C(C(=O)c1ccccc1)C(C)CC(=O)c1ccccc1 (stereo not given),AC50,[2],"28.2 µM [falling, single point]"
same,AC50,[1],"2.82 µM [rising, partial curve, poor fit]"
O=C(C1CCCCN1S(=O)(=O)c1ccccc1[N+](=O)[O-])N1CCOCC1 (stereo not given),AC50,[1],"15.8 µM [falling, single point]"
CC(=O)C1C(=O)c2c(cccc2[N+](=O)[O-])C1=Nc1ccc(S(N)(=O)=O)cc1 (stereo not given),AC50,[2],"0.447 µM [rising, full curve]"
CS(=O)(=O)N(CCc1ccccc1)CC(=O)N1CCN(c2ccccc2)CC1,AC50,[1],"12.6 µM [rising, single point]"
CCOC(=O)c1c(CN2CCC(C)CC2)oc2ccc(OC)cc12,AC50,[2],"35.5 µM [rising, single point]"
Cc1ccnn1C(C)C(=O)O (stereo not given),AC50,[2],"6.31 µM [falling, partial curve, poor fit]"
CCCn1c(SCC(=O)c2cc(C)n(-c3ccc4c(c3)OCO4)c2C)n[nH]c1=O,AC50,[1],"11.2 µM [rising, partial curve]"
CCC(C)NC(=O)Cn1c(=O)cc(-c2ccccc2)c2c(C)nn(C)c21 (stereo not given),AC50,[1],"0.0631 µM [falling, full curve]"
CN1C2CCC1CC(OC(=O)c1c[nH]c3ccccc13)C2 (stereo not given),AC50,[2],"0.0112 µM [falling, full curve, poor fit]"
COc1ccccc1-c1ccc2ncnc(N3CCOCC3)c2c1,AC50,[2],"6.31 µM [falling, partial curve]"
same,AC50,[1],"12.6 µM [falling, partial curve]"
CC(=O)NCCNc1ncnc2ccc(-c3ccccc3C#N)cc12,AC50,[2],"2.51 µM [falling, partial curve, poor fit]"
O=C(CCc1nc(-c2ccccc2F)no1)Nc1ccc(Oc2ccccc2)cc1,AC50,[1],"3.55 µM [rising, full curve]"
CCc1cc2cc(C)cc(C)c2nc1SCC(=O)Nc1cc(C)on1,AC50,[1],"0.00891 µM [falling, full curve]"
Cc1cc(NO)nc(-c2ccc(Br)cc2)n1,AC50,[2],"10 µM [rising, single point]"
same,AC50,[1],"10 µM [rising, single point]"
COc1ccc(-n2c(C)cc(C(=O)COc3ccc(C)nc3[N+](=O)[O-])c2C)cc1,AC50,[2],"14.1 µM [rising, partial curve, poor fit]"
same,AC50,[1],"22.4 µM [rising, partial curve]"
O=C(Nc1ccc(Cl)c(Cl)c1)Nc1nc(-c2ccccc2)cs1,AC50,[1],"20 µM [rising, partial curve, poor fit]"
CCN(CC)S(=O)(=O)c1ccc(NS(=O)(=O)CC23CCC(CC2=O)C3(C)C)cc1 (stereo not given),AC50,[1],"35.5 µM [rising, single point]"
N#Cc1nc(COc2ccccc2F)oc1NCCc1ccccc1,AC50,[1],"20 µM [rising, partial curve]"
COC(=O)c1ccccc1NC(=O)NCCc1c(C)nn(C)c1C,AC50,[1],"0.0891 µM [falling, full curve]"
CCCN(Cc1ccccc1)C(=S)NC(=O)c1ccccc1[N+](=O)[O-],AC50,[2],"5.62 µM [falling, single point]"
same,AC50,[1],"7.08 µM [falling, full curve, poor fit]"
CCOC(=O)Cn1c(=O)oc2cc(S(=O)(=O)NCc3ccccn3)ccc21,AC50,[1],"3.98 µM [falling, single point]"
CC(N=C1CC(C)(C)CC(=O)/C1=C(/O)CCCN1C(=O)c2ccccc2C1=O)C(=O)O (stereo not given),AC50,[2],"0.0112 µM [rising, full curve, poor fit]"
Cn1c(=O)c2c(SCC(=O)NCc3ccco3)nc(-c3ccccc3)nc2n(C)c1=O,AC50,[2],"0.398 µM [rising, full curve, poor fit]"
same,AC50,[1],"0.708 µM [rising, full curve, poor fit]"

# Copied from the entries so far for reference:
structure (smiles),measurement,setting,value
CCCN(Cc1ccccc1)C(=S)NC(=O)c1ccccc1[N+](=O)[O-],AC50,[1],"7.08 µM [falling, full curve, poor fit]"
CCOC(=O)Cn1c(=O)oc2cc(S(=O)(=O)NCc3ccccn3)ccc21,AC50,[1],"3.98 µM [falling, single point]"
CC(N=C1CC(C)(C)CC(=O)/C1=C(/O)CCCN1C(=O)c2ccccc2C1=O)C(=O)O (stereo not given),AC50,[2],"0.0112 µM [rising, full curve, poor fit]"
Cn1c(=O)c2c(SCC(=O)NCc3ccco3)nc(-c3ccccc3)nc2n(C)c1=O,AC50,[2],"0.398 µM [rising, full curve, poor fit]"
same,AC50,[1],"0.708 µM [rising, full curve, poor fit]"
